# From PubChem BioAssay AID248 (DTP/NCI, 2004)
# The list is a part of this screen's results and no random one: it gathers some chemical classes. Not every dose and run of a compound is shown. T/C: endpoint of the treated group in % of that of the vehicle group. Some entries give survivors of the animals treated and no T/C: the source holds a T/C of zero for them, seemingly a mark for toxic or unscored doses. Some doses without a T/C left all or most animals alive at the check, yet need not have been tolerated: the source hardly ever lists a survival T/C far under the control, and the zero likely stands for such cases as well. Survivors were counted at the toxicity check, usually on the fifth day, unless a day is given; later deaths do not show. Schedule codes are those of the source, taken here to give the interval after Q, in days (D) or hours (H), and the number of doses after X. Some schedules carry Z or #; the key to these is not given. Where survival is the endpoint, the PubChem record calls one and a half times the control and up active, and a quarter to a half above the control has no call in these data; cut-offs in other NCI protocols can differ. Additions like (4×) count equal records among those shown. Some entries hold several experiments; the values are given in rising order. Some T/C values are marked as having no survivor count here; that says nothing about deaths at the dose. Some T/C values carry the count of animals alive at the toxicity check (mostly the fifth day); without a count or a note in brackets, all were alive then.
# Test system: L1210 leukemia ip in BDF1 mice, survival T/C
# Assay: NCI In Vivo Anticancer Drug Screen. Data for tumor model L1210 Leukemia (intraperitoneal) in B6D2F1 (BDF1) mice
# Settings: T/C endpoint: mean survival time, higher T/C = longer survival
# [1] = dose: 100.0 mg/kg/injection, schedule: Q04DX003 (ip), vehicle: Klucel (hydroxypropylcellulose) (HPC)
# [2] = dose: 200.0 mg/kg/injection, schedule: Q04DX003 (ip), vehicle: Klucel (hydroxypropylcellulose) (HPC)
# [3] = dose: 400.0 mg/kg/injection, schedule: Q04DX003 (ip), vehicle: Klucel (hydroxypropylcellulose) (HPC)
smiles,measurement,setting,value
NCCF,T/C,"dose: 1.25 mg/kg/injection, schedule: Q01DX001 (ip), vehicle: saline",95 % of control
same,T/C,"dose: 1.25 mg/kg/injection, schedule: Q04DX003 (ip), vehicle: Klucel (hydroxypropylcellulose) (HPC)",94 % of control
same,T/C,"dose: 1.5 mg/kg/injection, schedule: Q01DX009 (ip), vehicle: saline",113 % of control
same,T/C,"dose: 2.2 mg/kg/injection, schedule: Q01DX009 (ip), vehicle: saline",115 and 125 % of control
same,T/C,"dose: 2.2 mg/kg/injection, schedule: Q04DX003 (ip), vehicle: saline",108 % of control
same,T/C,"dose: 2.5 mg/kg/injection, schedule: Q01DX001 (ip), vehicle: saline",101 % of control
same,T/C,"dose: 2.5 mg/kg/injection, schedule: Q04DX003 (ip), vehicle: Klucel (hydroxypropylcellulose) (HPC)",96 % of control
same,T/C,"dose: 2.5 mg/kg/injection, schedule: Q04DX003 (ip), vehicle: saline",97 % of control
same,T/C,"dose: 3.3 mg/kg/injection, schedule: Q01DX009 (ip), vehicle: saline",127 and 142 % of control
same,T/C,"dose: 3.3 mg/kg/injection, schedule: Q04DX003 (ip), vehicle: saline",120 % of control
same,T/C,"dose: 4.1 mg/kg/injection, schedule: Q01DX009 (ip), vehicle: saline",142 % of control [4 of 6 alive]
same,T/C,"dose: 5.0 mg/kg/injection, schedule: Q01DX001 (ip), vehicle: saline",101 % of control
same,survivor count,"dose: 5.0 mg/kg/injection, schedule: Q01DX009 (ip), vehicle: saline",3 of 6
same,T/C,"dose: 5.0 mg/kg/injection, schedule: Q04DX003 (ip), vehicle: Klucel (hydroxypropylcellulose) (HPC)",93 % of control
same,T/C,"dose: 5.0 mg/kg/injection, schedule: Q04DX003 (ip), vehicle: saline",138 % of control (2×)
same,survivor count,"dose: 7.5 mg/kg/injection, schedule: Q01DX009 (ip), vehicle: saline",0 of 6
same,survivor count,"dose: 7.5 mg/kg/injection, schedule: Q04DX003 (ip), vehicle: saline",2 of 6
same,T/C,"dose: 10.0 mg/kg/injection, schedule: Q01DX001 (ip), vehicle: saline",114 % of control [5 of 6 alive]
same,T/C,"dose: 10.0 mg/kg/injection, schedule: Q04DX003 (ip), vehicle: Klucel (hydroxypropylcellulose) (HPC)",107 % of control
same,survivor count,"dose: 10.0 mg/kg/injection, schedule: Q04DX003 (ip), vehicle: saline",0 of 6
same,survivor count,"dose: 20.0 mg/kg/injection, schedule: Q01DX001 (ip), vehicle: saline",2 of 6
CCCCN.N#CN/C(N)=N/P(=O)(Oc1ccccc1)Oc1ccccc1,T/C,"dose: 100.0 mg/kg/injection, schedule: Q04DX002 (ip), vehicle: saline with Tween-80",96 % of control
same,T/C,"dose: 200.0 mg/kg/injection, schedule: Q04DX002 (ip), vehicle: saline with Tween-80",92 % of control
same,T/C,"dose: 400.0 mg/kg/injection, schedule: Q04DX002 (ip), vehicle: saline with Tween-80",96 % of control
COc1cccc2c1OCCN2CCCl,T/C,"dose: 132.0 mg/kg/injection, schedule: Q01DX Z (ip), vehicle: methylcellulose (MC)",96 % of control
same,T/C,"dose: 201.0 mg/kg/injection, schedule: Q01DX Z (ip), vehicle: methylcellulose (MC)",98 % of control
same,T/C,"dose: 300.0 mg/kg/injection, schedule: Q01DX Z (ip), vehicle: methylcellulose (MC)",101 % of control [5 of 6 alive]
same,survivor count,"dose: 450.0 mg/kg/injection, schedule: Q01DX Z (ip), vehicle: methylcellulose (MC)",5 of 6
CCOP(=O)(Nc1ccccc1)OCC,T/C,[1],97 % of control
same,T/C,[2],97 % of control
same,T/C,[3],95 % of control
CN(CCCl)CC1COc2ccccc2O1 (stereo not drawn),T/C,"dose: 75.0 mg/kg/injection, schedule: Q01DX001 (ip), vehicle: saline",104 % of control
same,T/C,"dose: 150.0 mg/kg/injection, schedule: Q01DX001 (ip), vehicle: saline",112 % of control [4 of 6 alive]
same,survivor count,"dose: 300.0 mg/kg/injection, schedule: Q01DX001 (ip), vehicle: saline",0 of 6
CONC(=O)NP(=O)(NC(=O)NOC)NC(=O)NOC,T/C,"dose: 50.0 mg/kg/injection, schedule: Q01DX001 (ip), vehicle: saline",105 % of control
same,T/C,"dose: 100.0 mg/kg/injection, schedule: Q01DX001 (ip), vehicle: saline, evaluated on day 30",98 % of control
same,T/C,"dose: 100.0 mg/kg/injection, schedule: Q01DX001 (ip), vehicle: saline, run until all animals had died",121 % of control
same,T/C,"dose: 200.0 mg/kg/injection, schedule: Q01DX001 (ip), vehicle: saline, evaluated on day 30",96 % of control
same,T/C,"dose: 200.0 mg/kg/injection, schedule: Q01DX001 (ip), vehicle: saline, run until all animals had died",96 % of control
same,T/C,"dose: 400.0 mg/kg/injection, schedule: Q01DX001 (ip), vehicle: saline, evaluated on day 30",93 % of control
same,T/C,"dose: 400.0 mg/kg/injection, schedule: Q01DX001 (ip), vehicle: saline, run until all animals had died",100 % of control
C1CN1.C=O.COC(=O)CC(=O)OC,T/C,[1],95 % of control
same,T/C,[2],101 % of control
same,T/C,[3],95 % of control
BrC1C[N-]C2CCCCC2C1.[C-]#N.[Cu+2] (stereo not drawn),T/C,"dose: 25.0 mg/kg/injection, schedule: Q01DX009 (ip), vehicle: Klucel (hydroxypropylcellulose) (HPC)",92 % of control [survivor count not shown]
same,T/C,"dose: 50.0 mg/kg/injection, schedule: Q01DX009 (ip), vehicle: Klucel (hydroxypropylcellulose) (HPC)",90 % of control [survivor count not shown]
same,T/C,"dose: 100.0 mg/kg/injection, schedule: Q01DX009 (ip), vehicle: Klucel (hydroxypropylcellulose) (HPC)",94 % of control [survivor count not shown]
same,T/C,[1],96 % of control [survivor count not shown]
same,T/C,[2],93 % of control [survivor count not shown]
same,T/C,[3],95 % of control [survivor count not shown]
CCNP(=O)(OCCC=O)N(CCCl)CCCl (stereo not drawn),T/C,"dose: 125.0 mg/kg/injection, schedule: Q01DX001 (ip), vehicle: DMSO",117 % of control
same,T/C,"dose: 250.0 mg/kg/injection, schedule: Q01DX001 (ip), vehicle: DMSO",117 % of control
same,T/C,"dose: 500.0 mg/kg/injection, schedule: Q01DX001 (ip), vehicle: DMSO",136 % of control [5 of 6 alive]
same,survivor count,"dose: 750.0 mg/kg/injection, schedule: Q01DX001 (ip), vehicle: DMSO",1 of 6
same,survivor count,"dose: 1000.0 mg/kg/injection, schedule: Q01DX001 (ip), vehicle: DMSO",0 of 6
same,survivor count,"dose: 1250.0 mg/kg/injection, schedule: Q01DX001 (ip), vehicle: DMSO",0 of 6
O=C(O)CCc1ccc(N(CCCl)CCCl)cc1,T/C,"dose: 2.0 mg/kg/injection, schedule: Q01DX015 (ip), vehicle: saline",97 % of control
same,T/C,"dose: 4.0 mg/kg/injection, schedule: Q01DX015 (ip), vehicle: saline",103 % of control
same,T/C,"dose: 8.0 mg/kg/injection, schedule: Q01DX015 (ip), vehicle: saline",114 % of control
same,T/C,"dose: 16.0 mg/kg/injection, schedule: Q01DX015 (ip), vehicle: saline",110 % of control
CC1CNP(=O)(N(CCCl)CCCl)OC1 (stereo not drawn),T/C,"dose: 22.0 mg/kg/injection, schedule: Q01DX Z (ip), vehicle: methylcellulose (MC)",98 % of control
same,T/C,"dose: 44.0 mg/kg/injection, schedule: Q01DX Z (ip), vehicle: methylcellulose (MC)",103 % of control
same,T/C,"dose: 88.0 mg/kg/injection, schedule: Q01DX Z (ip), vehicle: methylcellulose (MC)",128 % of control [5 of 6 alive]
same,T/C,"dose: 175.0 mg/kg/injection, schedule: Q01DX Z (ip), vehicle: methylcellulose (MC)",118 % of control [4 of 6 alive]
O=P(NCCCO)(OCCCCl)N(CCCl)CCCl (stereo not drawn),T/C,"dose: 28.0 mg/kg/injection, schedule: Q01DX Z (ip), vehicle: methylcellulose (MC)",97 % of control
same,T/C,"dose: 56.0 mg/kg/injection, schedule: Q01DX Z (ip), vehicle: methylcellulose (MC)",112 % of control
same,T/C,"dose: 112.0 mg/kg/injection, schedule: Q01DX Z (ip), vehicle: methylcellulose (MC)",130 % of control [5 of 6 alive]
same,survivor count,"dose: 225.0 mg/kg/injection, schedule: Q01DX Z (ip), vehicle: methylcellulose (MC)",2 of 6
